According to the supplement of paper PMC10849652:
Some of the results follow.

Sequences of proteins named here, by UniProt entry; tags and fusion partners are left off. A change or cut given only in a name is not applied to a line headed by its entry.
UniProt P08922: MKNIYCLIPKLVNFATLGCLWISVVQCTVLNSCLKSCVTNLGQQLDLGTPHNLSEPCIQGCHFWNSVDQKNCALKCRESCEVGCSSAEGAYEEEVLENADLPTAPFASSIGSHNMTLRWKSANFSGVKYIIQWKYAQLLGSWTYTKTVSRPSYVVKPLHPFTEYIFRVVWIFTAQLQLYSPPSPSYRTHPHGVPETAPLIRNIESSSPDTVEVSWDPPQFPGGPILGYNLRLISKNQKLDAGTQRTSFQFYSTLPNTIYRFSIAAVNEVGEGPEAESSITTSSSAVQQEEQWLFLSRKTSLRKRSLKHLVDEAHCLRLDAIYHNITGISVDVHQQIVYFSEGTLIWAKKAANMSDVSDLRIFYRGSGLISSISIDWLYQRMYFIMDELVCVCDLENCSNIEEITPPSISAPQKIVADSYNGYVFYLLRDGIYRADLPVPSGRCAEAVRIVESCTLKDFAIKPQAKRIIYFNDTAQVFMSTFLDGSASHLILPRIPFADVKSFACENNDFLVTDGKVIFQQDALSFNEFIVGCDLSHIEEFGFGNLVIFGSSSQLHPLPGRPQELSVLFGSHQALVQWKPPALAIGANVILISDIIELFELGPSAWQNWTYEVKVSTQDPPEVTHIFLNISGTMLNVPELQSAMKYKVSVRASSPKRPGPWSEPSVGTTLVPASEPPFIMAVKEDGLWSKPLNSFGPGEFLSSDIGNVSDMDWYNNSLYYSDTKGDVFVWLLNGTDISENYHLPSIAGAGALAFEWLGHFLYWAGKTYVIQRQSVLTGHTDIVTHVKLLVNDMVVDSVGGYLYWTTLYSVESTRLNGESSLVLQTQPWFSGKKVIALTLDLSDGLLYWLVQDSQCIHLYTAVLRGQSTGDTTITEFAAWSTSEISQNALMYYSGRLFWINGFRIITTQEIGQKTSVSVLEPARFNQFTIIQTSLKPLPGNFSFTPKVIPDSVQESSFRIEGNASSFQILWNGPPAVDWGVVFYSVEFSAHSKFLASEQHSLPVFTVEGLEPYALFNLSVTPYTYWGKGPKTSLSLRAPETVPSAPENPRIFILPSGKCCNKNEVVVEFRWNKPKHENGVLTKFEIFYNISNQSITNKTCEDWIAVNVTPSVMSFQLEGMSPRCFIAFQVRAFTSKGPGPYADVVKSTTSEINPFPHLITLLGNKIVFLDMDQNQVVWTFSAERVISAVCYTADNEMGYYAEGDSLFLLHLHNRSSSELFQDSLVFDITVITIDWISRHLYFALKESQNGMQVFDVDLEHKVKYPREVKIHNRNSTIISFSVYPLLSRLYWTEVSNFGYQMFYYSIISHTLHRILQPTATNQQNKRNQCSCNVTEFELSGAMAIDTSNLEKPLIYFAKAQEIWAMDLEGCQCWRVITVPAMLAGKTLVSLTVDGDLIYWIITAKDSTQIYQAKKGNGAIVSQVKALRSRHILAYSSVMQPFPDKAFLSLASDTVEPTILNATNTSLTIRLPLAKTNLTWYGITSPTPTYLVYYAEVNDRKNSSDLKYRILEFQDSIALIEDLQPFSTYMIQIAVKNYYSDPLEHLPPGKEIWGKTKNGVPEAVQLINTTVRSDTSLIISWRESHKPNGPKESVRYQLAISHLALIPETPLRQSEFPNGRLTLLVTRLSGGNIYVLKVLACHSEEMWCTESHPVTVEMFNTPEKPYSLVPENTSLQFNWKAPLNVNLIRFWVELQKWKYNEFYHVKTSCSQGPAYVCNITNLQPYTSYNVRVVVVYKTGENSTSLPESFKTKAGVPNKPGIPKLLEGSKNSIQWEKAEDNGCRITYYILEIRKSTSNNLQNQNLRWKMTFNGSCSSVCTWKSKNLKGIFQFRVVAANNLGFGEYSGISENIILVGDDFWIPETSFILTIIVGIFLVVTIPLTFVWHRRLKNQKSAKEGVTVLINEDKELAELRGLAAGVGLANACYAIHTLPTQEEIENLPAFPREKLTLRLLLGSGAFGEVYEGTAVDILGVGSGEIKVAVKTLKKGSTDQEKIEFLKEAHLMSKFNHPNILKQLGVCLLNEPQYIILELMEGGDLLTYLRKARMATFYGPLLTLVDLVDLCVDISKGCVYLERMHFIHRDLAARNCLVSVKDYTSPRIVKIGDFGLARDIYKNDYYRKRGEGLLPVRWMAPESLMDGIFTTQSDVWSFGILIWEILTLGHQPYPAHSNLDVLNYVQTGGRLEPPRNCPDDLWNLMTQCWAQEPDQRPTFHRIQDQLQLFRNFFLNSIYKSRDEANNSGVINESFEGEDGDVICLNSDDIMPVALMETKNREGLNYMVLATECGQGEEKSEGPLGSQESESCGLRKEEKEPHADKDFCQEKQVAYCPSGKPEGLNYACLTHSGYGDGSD
UniProt Q86UA6: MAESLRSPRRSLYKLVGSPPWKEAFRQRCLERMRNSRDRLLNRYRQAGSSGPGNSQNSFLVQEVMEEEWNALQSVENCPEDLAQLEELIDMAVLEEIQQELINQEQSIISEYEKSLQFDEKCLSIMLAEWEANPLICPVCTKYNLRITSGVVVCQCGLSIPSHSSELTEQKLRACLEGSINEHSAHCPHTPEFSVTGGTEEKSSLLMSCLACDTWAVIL
UniProt Q6P087: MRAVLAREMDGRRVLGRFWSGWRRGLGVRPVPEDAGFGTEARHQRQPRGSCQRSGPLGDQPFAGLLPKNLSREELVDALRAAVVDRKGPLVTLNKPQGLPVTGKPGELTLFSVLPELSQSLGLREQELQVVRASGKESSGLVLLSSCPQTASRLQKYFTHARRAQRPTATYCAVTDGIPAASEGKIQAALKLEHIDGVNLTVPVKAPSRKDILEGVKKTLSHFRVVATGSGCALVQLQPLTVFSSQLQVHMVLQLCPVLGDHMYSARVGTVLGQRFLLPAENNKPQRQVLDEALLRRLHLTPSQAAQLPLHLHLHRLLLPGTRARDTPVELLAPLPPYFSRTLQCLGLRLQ
UniProt P56182: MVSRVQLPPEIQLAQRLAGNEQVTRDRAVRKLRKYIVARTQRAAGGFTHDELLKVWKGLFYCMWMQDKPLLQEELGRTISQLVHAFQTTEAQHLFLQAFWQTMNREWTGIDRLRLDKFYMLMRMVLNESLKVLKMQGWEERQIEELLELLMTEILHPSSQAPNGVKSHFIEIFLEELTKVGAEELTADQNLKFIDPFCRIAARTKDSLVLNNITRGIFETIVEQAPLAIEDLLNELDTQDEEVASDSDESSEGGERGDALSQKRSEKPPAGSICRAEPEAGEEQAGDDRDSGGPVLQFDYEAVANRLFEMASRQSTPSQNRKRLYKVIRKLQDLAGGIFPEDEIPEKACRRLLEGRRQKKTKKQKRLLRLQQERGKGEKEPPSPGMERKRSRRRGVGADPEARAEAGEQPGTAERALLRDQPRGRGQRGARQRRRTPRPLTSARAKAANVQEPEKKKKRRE
UniProt Q9BY78: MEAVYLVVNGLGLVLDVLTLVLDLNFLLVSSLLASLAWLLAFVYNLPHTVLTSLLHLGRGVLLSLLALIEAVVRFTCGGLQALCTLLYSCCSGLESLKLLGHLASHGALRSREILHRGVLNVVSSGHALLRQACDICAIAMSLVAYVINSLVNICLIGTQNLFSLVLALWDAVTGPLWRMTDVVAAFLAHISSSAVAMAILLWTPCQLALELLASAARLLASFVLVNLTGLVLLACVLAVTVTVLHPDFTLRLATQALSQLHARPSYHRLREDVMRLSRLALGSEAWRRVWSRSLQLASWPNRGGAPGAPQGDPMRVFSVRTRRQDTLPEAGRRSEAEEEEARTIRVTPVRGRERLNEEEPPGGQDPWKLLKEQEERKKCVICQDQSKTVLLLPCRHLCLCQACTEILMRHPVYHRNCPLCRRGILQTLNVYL
UniProt Q96AT9: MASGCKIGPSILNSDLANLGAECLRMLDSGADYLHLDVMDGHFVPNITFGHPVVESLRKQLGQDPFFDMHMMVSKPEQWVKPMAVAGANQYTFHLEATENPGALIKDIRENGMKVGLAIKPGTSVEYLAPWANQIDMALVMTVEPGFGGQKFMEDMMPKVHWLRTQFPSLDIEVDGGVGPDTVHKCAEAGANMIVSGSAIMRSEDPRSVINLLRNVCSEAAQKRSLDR
UniProt Q13464: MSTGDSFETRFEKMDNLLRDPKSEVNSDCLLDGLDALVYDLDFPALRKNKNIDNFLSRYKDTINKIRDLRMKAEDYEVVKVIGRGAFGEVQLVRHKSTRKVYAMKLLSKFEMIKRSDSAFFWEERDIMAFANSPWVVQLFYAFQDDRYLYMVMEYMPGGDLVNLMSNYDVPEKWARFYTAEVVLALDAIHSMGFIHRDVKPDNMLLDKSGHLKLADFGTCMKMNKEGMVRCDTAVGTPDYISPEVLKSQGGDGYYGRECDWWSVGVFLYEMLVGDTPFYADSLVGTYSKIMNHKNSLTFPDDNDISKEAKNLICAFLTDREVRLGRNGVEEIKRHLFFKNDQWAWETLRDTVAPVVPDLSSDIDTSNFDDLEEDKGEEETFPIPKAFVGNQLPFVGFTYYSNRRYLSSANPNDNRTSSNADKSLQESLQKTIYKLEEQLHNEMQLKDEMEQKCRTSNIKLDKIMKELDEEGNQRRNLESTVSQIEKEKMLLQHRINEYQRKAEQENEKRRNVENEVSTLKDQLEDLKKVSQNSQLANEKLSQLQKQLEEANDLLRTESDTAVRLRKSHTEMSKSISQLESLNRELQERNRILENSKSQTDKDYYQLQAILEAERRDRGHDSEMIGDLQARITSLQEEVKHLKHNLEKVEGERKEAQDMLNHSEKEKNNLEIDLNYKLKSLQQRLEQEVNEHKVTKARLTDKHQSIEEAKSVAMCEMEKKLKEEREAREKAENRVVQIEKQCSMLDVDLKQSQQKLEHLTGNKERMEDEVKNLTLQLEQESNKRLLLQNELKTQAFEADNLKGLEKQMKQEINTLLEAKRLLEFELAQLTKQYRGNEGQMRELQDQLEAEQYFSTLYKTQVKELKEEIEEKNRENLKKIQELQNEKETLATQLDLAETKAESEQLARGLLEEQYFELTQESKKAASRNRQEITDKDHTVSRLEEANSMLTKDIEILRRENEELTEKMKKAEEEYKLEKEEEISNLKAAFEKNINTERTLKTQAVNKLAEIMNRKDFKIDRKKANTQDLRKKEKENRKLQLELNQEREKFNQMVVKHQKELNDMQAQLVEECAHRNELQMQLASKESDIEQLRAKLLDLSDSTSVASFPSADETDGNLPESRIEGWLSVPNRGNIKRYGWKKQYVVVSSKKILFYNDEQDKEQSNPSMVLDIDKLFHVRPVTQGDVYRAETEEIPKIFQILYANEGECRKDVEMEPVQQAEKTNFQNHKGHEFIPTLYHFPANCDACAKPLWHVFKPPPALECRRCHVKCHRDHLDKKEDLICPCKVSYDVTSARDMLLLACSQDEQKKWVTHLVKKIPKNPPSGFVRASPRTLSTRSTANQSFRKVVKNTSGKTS
UniProt Q92834: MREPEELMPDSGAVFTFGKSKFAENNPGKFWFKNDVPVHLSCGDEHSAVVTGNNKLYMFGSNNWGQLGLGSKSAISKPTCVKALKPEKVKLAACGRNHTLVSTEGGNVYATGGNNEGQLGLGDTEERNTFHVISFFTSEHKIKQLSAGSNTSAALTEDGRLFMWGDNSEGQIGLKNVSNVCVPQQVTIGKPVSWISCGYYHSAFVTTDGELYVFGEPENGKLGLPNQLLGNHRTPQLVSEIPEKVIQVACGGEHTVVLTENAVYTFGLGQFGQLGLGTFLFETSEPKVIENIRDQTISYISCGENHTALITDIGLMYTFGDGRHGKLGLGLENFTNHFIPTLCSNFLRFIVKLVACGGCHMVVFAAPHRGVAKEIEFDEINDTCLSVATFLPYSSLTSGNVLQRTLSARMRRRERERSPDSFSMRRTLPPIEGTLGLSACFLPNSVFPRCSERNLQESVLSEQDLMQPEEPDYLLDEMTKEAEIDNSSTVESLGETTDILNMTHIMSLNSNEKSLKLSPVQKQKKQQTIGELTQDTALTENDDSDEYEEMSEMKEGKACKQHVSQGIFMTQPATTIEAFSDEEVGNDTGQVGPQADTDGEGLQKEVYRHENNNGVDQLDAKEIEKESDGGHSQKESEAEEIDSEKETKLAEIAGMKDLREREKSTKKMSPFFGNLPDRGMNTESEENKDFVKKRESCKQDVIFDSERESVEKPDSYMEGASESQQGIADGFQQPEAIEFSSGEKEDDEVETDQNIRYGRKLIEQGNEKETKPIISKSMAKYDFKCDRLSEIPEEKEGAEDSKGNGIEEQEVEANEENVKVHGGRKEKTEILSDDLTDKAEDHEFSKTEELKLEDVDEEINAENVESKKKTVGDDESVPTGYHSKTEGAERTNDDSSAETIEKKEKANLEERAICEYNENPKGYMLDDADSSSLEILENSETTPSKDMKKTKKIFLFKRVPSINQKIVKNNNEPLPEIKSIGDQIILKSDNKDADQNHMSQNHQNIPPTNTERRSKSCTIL

Columns and labels:
Assay in all cases: log2 fold change, soluble protein after heating vs DMSO (PISA); higher = thermal stabilisation; K562 cells, 10 uM, 30 min; active = over 0.2 and 3.5 SD of the protein, either way, in both replicates (recomputed)
[1] = compound: NC(=O)Nc1cc(-c2cccc(F)c2)sc1C(=O)N[C@H]1CCCNC1
Procedure, shortened: (§1)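 Soluble protein was defined as the supernatant after 21,000xg for 90 min. It came from K562 cells at 2×10^6 cells/mL given 10 μM compound for 30 min, heated in aliquots for 3 min across 48°C-58°C, pooled, and extracted in PBS with 0.5% NP-40 at 4°C, and was quantified by TMTpro 16plex LC-MS/MS with equalised channel sums. Thermal stability against control samples, from duplicates, is reported as log2 fold change.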

[2] = compound: NC(=O)c1cnc(N[C@@H]2CCCC[C@@H]2N)nc1Nc1cccc(-n2nccn2)c1
Procedure, shortened: as §1

[3] = compound: NC1(c2ccc(-c3nc4ccn5c(=O)[nH]nc5c4cc3-c3ccccc3)cc2)CCC1
Procedure, shortened: as §1

[4] = compound: NCC(=O)Nc1ccc(-n2nc(C(F)(F)F)cc2-c2ccc3c(ccc4ccccc43)c2)cc1
Procedure, shortened: as §1

entinostat = compound: Nc1ccccc1NC(=O)c1ccc(CNC(=O)OCc2cccnc2)cc1 [entinostat]
Procedure, shortened: as §1

vorinostat = compound: O=C(CCCCCCC(=O)Nc1ccccc1)NO [vorinostat]
Procedure, shortened: as §1

citarinostat = compound: O=C(CCCCCCNC(=O)c1cnc(N(c2ccccc2)c2ccccc2Cl)nc1)NO [citarinostat]
Procedure, shortened: as §1

silmitasertib = compound: O=C(O)c1ccc2c(c1)nc(Nc1cccc(Cl)c1)c1ccncc12 [silmitasertib]
Procedure, shortened: as §1

[5] = compound: O=C1NC(=O)C(c2cnc3ccccn23)=C1c1cn2c3c(cc(F)cc13)CN(C(=O)N1CCCCC1)CC2
Procedure, shortened: as §1

[6] = compound: c1cc(OCCN2CCCCC2)cc(-c2n[nH]c3ccc(-c4nnc[nH]4)cc23)c1
Procedure, shortened: as §1

Measured: log2 fold change

RPS11 (UniProt P62280)
inactive: [1] 0.097 | [2] 0.148 | [3] 0.279 | [4] 0.091 | entinostat -0.077 | vorinostat -0.023 | citarinostat -0.125 | silmitasertib 0.039 | [5] 0.121 | [6] -0.212

RRM1 (UniProt P23921)
inactive: [1] -0.005 | [2] 0.016 | [3] -0.067 | [4] 0.019 | entinostat -0.028 | vorinostat 0.021 | citarinostat 0.025 | silmitasertib -0.012 | [5] -0.064 | [6] -0.035

RPL24 (UniProt P83731)
inactive: [1] 0.207 | [2] 0.219 | [3] 0.329 | [4] 0.205 | entinostat -0.022 | vorinostat -0.031 | citarinostat -0.124 | silmitasertib 0.087 | [5] 0.143 | [6] -0.173

RPS27L (UniProt Q71UM5)
inactive: [1] 0.02 | [2] 0.05 | [3] 0.054 | [4] 0.048 | entinostat -0.023 | vorinostat 0.107 | citarinostat -0.026 | silmitasertib 0.005 | [5] 0.085 | [6] -0.109

RNPS1 (UniProt Q15287)
inactive: [1] -0.019 | [2] -0.39 | [3] 0.097 | [4] 0.031 | entinostat -0.06 | vorinostat 0.024 | citarinostat 0.038 | silmitasertib -0.111 | [5] -0.018 | [6] -0.146

RPL6 (UniProt Q02878)
inactive: [1] 0.248 | [2] 0.186 | [3] 0.45 | [4] 0.277 | entinostat -0.105 | vorinostat -0.036 | citarinostat -0.239 | silmitasertib 0.176 | [5] 0.291 | [6] -0.364

RPS17 (UniProt P08708)
inactive: [1] 0.03 | [2] 0.058 | [3] 0.222 | [4] 0.067 | entinostat -0.046 | vorinostat 0.01 | citarinostat -0.045 | silmitasertib -0.027 | [5] 0.077 | [6] -0.155

RPS15A (UniProt P62244)
inactive: [1] 0.074 | [2] 0.225 | [3] 0.255 | [4] 0.133 | entinostat -0.087 | vorinostat -0.002 | citarinostat -0.127 | silmitasertib 0.07 | [5] 0.158 | [6] -0.255

RPS28 (UniProt P62857)
inactive: [1] -0.017 | [2] 0 | [3] 0.132 | [4] 0.051 | entinostat -0.06 | vorinostat -0.022 | citarinostat -0.086 | silmitasertib 0.003 | [5] 0.073 | [6] 0.168

ROS1 (UniProt P08922)
inactive: [1] -0.337 | [2] -0.214 | [3] 0.011 | entinostat -0.119 | vorinostat -0.091 | citarinostat -0.083 | silmitasertib 0.09 | [6] -0.037

ROGDI (UniProt Q9GZN7)
inactive: vorinostat 0.16 | citarinostat -0.16 | [6] -0.295

RPAIN isoform 8 (UniProt Q86UA6)
inactive: [1] -0.017 | [2] -0.044 | [4] -0.093 | entinostat 0.014 | [5] -0.012

RPS6KB2 (UniProt Q9UBS0)
inactive: [3] -0.035 | silmitasertib 0.004 | [5] -0.017

Quoted at random: 2 records from the list, in no set order.
ROGDI (UniProt Q9GZN7)
inactive: vorinostat 0.16 | citarinostat -0.16 | [6] -0.295

RPAIN isoform 8 (UniProt Q86UA6)
inactive: [1] -0.017 | [2] -0.044 | [4] -0.093 | entinostat 0.014 | [5] -0.012

Further results follow:

RNF34 isoform 2 (UniProt Q969K3)
inactive: [2] -0.09 | [3] -0.023 | [4] 0.063 | vorinostat 0.007 | citarinostat 0.029 | silmitasertib 0.254 | [5] -0.028 | [6] 0.15

RREB1 isoform 2 (UniProt Q92766)
inactive: [1] 0.053 | [3] -0.026 | [4] 0.052 | entinostat -0.143 | vorinostat -0.192 | citarinostat -0.108 | silmitasertib -0.136 | [5] 0.067 | [6] -0.105

RPUSD3 (UniProt Q6P087)
inactive: [2] 0.017 | [3] -0.398 | vorinostat 0.033 | silmitasertib -0.023

RRP1 (UniProt P56182)
inactive: [4] 0.081 | vorinostat 0.45

RPL10 (UniProt F8W7C6)
inactive: [1] 0.193 | [3] 0.108 | [4] 0.006 | entinostat -0.004 | vorinostat 0.017 | citarinostat -0.044 | silmitasertib 0.148 | [5] 0.205 | [6] -0.016

RPP30 (UniProt Q5VU11)
inactive: vorinostat -0.135

RNF26 (UniProt Q9BY78)
inactive: [4] -0.161 | vorinostat -0.094

RNF40 (UniProt O75150)
inactive: [1] 0.095 | [3] -0.042 | [4] -0.423 | entinostat 0.259 | silmitasertib 0.259

RPRD2 (UniProt Q5VT52)
inactive: [2] -0.05 | [4] -0.021 | [5] -0.016

RPS6KA5 (UniProt O75582)
inactive: [3] -0.138 | citarinostat -0.101 | silmitasertib 0.045 | [5] -0.088 | [6] 0.092

RPS3 (UniProt E9PJN9)
inactive: vorinostat 0.2 | citarinostat 0 | [6] -0.048

RNFT1 (UniProt Q5M7Z0)
inactive: [3] -0.081 | vorinostat -0.069 | silmitasertib 0.023 | [5] -0.044

RPSA (UniProt F8WD59)
inactive: [3] 0.105 | silmitasertib 0

RNF31 (UniProt Q96EP0)
inactive: [1] -0.023 | [4] 0.055 | entinostat 0.094 | vorinostat 0.108 | [5] -0.043

RPLP0 (UniProt F8VWV4)
inactive: [1] -0.134 | [2] 0 | entinostat 0.001 | [5] 0.12

RPE (UniProt Q96AT9)
inactive: [2] -0.02 | [3] -0.06 | [4] 0.071 | citarinostat 0.084 | silmitasertib -0.009 | [5] -0.466 | [6] -0.052

ROCK1 (UniProt Q13464)
inactive: [2] 0.054 | [3] -0.09 | [4] -0.029 | entinostat -0.002 | vorinostat 0.029 | citarinostat 0.068 | [5] -0.054

RPL22L1 (UniProt Q6P5R6)
inactive: [1] 0.046 | entinostat 0.074 | citarinostat -0.131 | [5] 0.225 | [6] 0.018

RPGR (UniProt Q92834)
inactive: [5] 0.077

RPAP2 (UniProt Q8IXW5)
inactive: [1] 0.065 | [2] -0.301 | entinostat -0.074 | vorinostat 0.168 | [5] 0.108
